Consider three molecules from publication PMC3182244.

Results are given in words; binding and its absence hold for the method and conditions named. In cells and extracts the contact can be indirect. Some results given as binding are weak or reduced against the parent protein; the word gives no strength. Where a sequence is shown, tags or fusion partners need not be part of it.

Experiment [1] has as its target T1, His-tagged Tob38 (strain Tob38HT) (Neurospora crassa) (UniProt V5IPB4).
T1 sequence: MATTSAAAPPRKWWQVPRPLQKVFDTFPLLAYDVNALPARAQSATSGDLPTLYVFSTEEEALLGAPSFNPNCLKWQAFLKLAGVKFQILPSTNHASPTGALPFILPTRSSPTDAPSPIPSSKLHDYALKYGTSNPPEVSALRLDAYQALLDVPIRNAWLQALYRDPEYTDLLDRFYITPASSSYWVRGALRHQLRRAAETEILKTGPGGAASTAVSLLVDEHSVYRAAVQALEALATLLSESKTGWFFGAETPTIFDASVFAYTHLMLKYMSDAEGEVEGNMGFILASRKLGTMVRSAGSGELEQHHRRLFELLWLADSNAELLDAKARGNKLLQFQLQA
The experiment in a line: pull-down; His-tagged TOB subunit purified from isolated N. crassa mitochondria on Ni-NTA resin (as in ref. 16); eluate run on BNGE, or BNGE then SDS-PAGE (two dimensions), and blotted with antibodies to Tob55, Tob38, Tob37 or Mdm10.

The target in experiment [2] is T2, His-tagged Tob37 (strain Tob37HT) (Neurospora crassa) (UniProt Q7SFC4).
T2 sequence: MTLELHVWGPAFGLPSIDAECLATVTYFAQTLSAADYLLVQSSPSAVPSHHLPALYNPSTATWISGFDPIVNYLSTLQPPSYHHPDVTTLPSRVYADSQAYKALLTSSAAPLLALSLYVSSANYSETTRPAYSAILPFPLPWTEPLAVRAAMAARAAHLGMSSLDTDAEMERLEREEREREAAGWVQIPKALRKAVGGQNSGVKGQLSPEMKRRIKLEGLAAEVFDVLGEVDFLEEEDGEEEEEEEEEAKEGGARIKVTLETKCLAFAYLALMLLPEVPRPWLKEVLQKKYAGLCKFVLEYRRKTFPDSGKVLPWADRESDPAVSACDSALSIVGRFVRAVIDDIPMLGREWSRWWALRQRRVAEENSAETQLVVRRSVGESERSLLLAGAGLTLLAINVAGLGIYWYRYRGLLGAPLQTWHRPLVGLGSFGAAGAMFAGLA
Described as above.

B1: Tob37 (protein, UniProt Q7SFC4 1-442)
chain: MTLELHVWGPAFGLPSIDAECLATVTYFAQTLSAADYLLVQSSPSAVPSHHLPALYNPSTATWISGFDPIVNYLSTLQPPSYHHPDVTTLPSRVYADSQAYKALLTSSAAPLLALSLYVSSANYSETTRPAYSAILPFPLPWTEPLAVRAAMAARAAHLGMSSLDTDAEMERLEREEREREAAGWVQIPKALRKAVGGQNSGVKGQLSPEMKRRIKLEGLAAEVFDVLGEVDFLEEEDGEEEEEEEEEAKEGGARIKVTLETKCLAFAYLALMLLPEVPRPWLKEVLQKKYAGLCKFVLEYRRKTFPDSGKVLPWADRESDPAVSACDSALSIVGRFVRAVIDDIPMLGREWSRWWALRQRRVAEENSAETQLVVRRSVGESERSLLLAGAGLTLLAINVAGLGIYWYRYRGLLGAPLQTWHRPLVGLGSFGAAGAMFAGLA
Take B1: in experiment [1], the binding entry is listed as “binds”.

B2: Tob38 (protein, UniProt V5IPB4 1-340)
chain: MATTSAAAPPRKWWQVPRPLQKVFDTFPLLAYDVNALPARAQSATSGDLPTLYVFSTEEEALLGAPSFNPNCLKWQAFLKLAGVKFQILPSTNHASPTGALPFILPTRSSPTDAPSPIPSSKLHDYALKYGTSNPPEVSALRLDAYQALLDVPIRNAWLQALYRDPEYTDLLDRFYITPASSSYWVRGALRHQLRRAAETEILKTGPGGAASTAVSLLVDEHSVYRAAVQALEALATLLSESKTGWFFGAETPTIFDASVFAYTHLMLKYMSDAEGEVEGNMGFILASRKLGTMVRSAGSGELEQHHRRLFELLWLADSNAELLDAKARGNKLLQFQLQA
Regarding B2, in experiment [2], the binding entry was “binds”.

B3: Mdm10 (protein, UniProt Q7SBE0 1-480)
chain: MREFMNYITNAFYGATGWNEDNKYNELNATSRELIDFPLPRGLRLTLSSLATPHFATSYQLGSVGVVDGSISYLHSSIPLTHIAAQSDKIPLPALLRCYRRLHDLRSPGQQHYILDADPLSGLPPPPQSARALLGAASDAAVAGGALDGGNTDQDLGIYTHSLLYGRLYLPKSLLEGMIIKRFTQALQVQVRAVSEQSLRNGGTILGLVQYDKGKYGLEGLYSTDGGLLGFRGLYNFGGDASSSTCDPWTPTPGENNNNNNNNNNNNNGNAQAGEKERIYGRFSVGGELYYGTLNKSGGMSLGARFATLPAHRGTPLTATLTINPLMGNINATYALLAREYCSLATRVDFNVYSYESEWAVGMELWSNRRPAGFLLGASPSNDFEPEPHPPRKKERSFQAKMEWRLDDPEPEPEPQPTPKTRKNDEYKGVLKARLDNNLRMGLLWEGRAKSLIFSIGTGIDLHKLGEPFRSLGLEVQYSS
On to B3, for which the binding result in experiment [2] and in experiment [1] was “binds” in each case.
